# Reference: the supplement of paper PMC9015667
# Structures can show the parent of a compound that is named as a salt. The list shows a part of the results. Most values come without repeats; read them as rough.
# Legend:
# Assay in all cases: reduction in cell viability relative to untreated/vehicle; higher = more growth inhibition
# Conditions in all cases: 200 nM; 72 h
# M229P = system: M229P (parental melanoma line)
# M229R = system: M229R (matched melanoma line resistant to BRAF inhibitors)
# M238P = system: M238P (parental melanoma line)
# M238R = system: M238R (matched melanoma line resistant to BRAF inhibitors)
# M249P = system: M249P (parental melanoma line)
# M249R = system: M249R (matched melanoma line resistant to BRAF inhibitors)
# UACC62P = system: UACC62P (parental melanoma line)
# UACC62R = system: UACC62R (matched melanoma line resistant to BRAF inhibitors)
SMILES,reduction in cell viability (M229P) [%],reduction in cell viability (M229R) [%],reduction in cell viability (M238P) [%],reduction in cell viability (M238R) [%],reduction in cell viability (M249P) [%],reduction in cell viability (M249R) [%],reduction in cell viability (UACC62P) [%],reduction in cell viability (UACC62R) [%]
CC(C)[C@H](N)C(=O)OCCOCn1cnc2c(=O)nc(N)[nH]c21 [Valaciclovir],< 0,< 0,< 0,< 0,< 0,< 0,< 0,< 0
CC[C@H](CC#N)OC(=O)N[C@@H](C)c1cccc(NC(=O)Nc2ccc(-c3cnco3)c(OC)c2)c1,20.6,8.86,28.8,18.6,34.4,53,16,49.5
C=CC(=O)Nc1cccc(Oc2nc(Nc3ccc(N4CCN(C)CC4)cc3)ncc2Cl)c1,< 0,< 0,10.9,< 0,< 0,< 0,22.2,9.44
N#CC[C@H](C1CCCC1)n1cc(-c2ncnc3[nH]ccc23)cn1,< 0,3.22,10.6,< 0,< 0,< 0,< 0,< 0
CC(S)C(=O)NCC(=O)O (stereo not drawn) [Tiopronin],< 0,< 0,< 0,< 0,< 0,< 0,< 0,< 0
C[C@@H](O)[C@H](NC(=O)[C@@H]1CSSC[C@H](NC(=O)[C@H](N)Cc2ccccc2)C(=O)N[C@@H](Cc2ccc(O)cc2)C(=O)N[C@H](Cc2c[nH]c3ccccc23)C(=O)N[C@@H](CCCCN)C(=O)N1)C(N)=O,< 0,< 0,< 0,< 0,< 0,< 0,< 0,< 0
CC(=O)OCC(=O)[C@@]1(O)[C@H](C)C[C@H]2[C@@H]3C=C(C)C4=Cc5c(cnn5-c5ccccc5)C[C@]4(C)[C@H]3[C@@H](O)C[C@@]21C [Cortivazol],< 0,< 0,< 0,< 0,< 0,< 0,< 0,< 0
CC(=O)Nc1ccc(O)cc1 [Acetaminophen],< 0,< 0,< 0,< 0,< 0,< 0,8.56,< 0
O=c1[nH]c(=O)n(C2CCCO2)cc1F (stereo not drawn) [Tegafur],< 0,< 0,< 0,< 0,< 0,< 0,< 0,< 0
CC(C)(O)CC[C@@H](O)[C@](C)(O)[C@H]1CC[C@@]2(O)C3=CC(=O)[C@@H]4C[C@@H](O)[C@@H](O)C[C@]4(C)[C@H]3CC[C@]12C [20-hydroxyecdysone],< 0,< 0,< 0,< 0,< 0,< 0,< 0,< 0
CC(C)CN(C[C@@H](O)[C@H](Cc1ccccc1)NC(=O)O[C@H]1CO[C@H]2OCC[C@H]21)S(=O)(=O)c1ccc(N)cc1 [Darunavir],< 0,< 0,< 0,< 0,< 0,< 0,< 0,< 0
CC(C)[N+]1(C)[C@@H]2CC[C@H]1C[C@@H](OC(=O)C(CO)c1ccccc1)C2 (stereo partly drawn) [Ipratropium bromide hydrate],< 0,< 0,< 0,< 0,< 0,< 0,< 0,< 0
Cc1cc(SCc2sc(-c3ccc(C(F)(F)F)cc3)nc2C)ccc1OCC(=O)O,< 0,< 0,< 0,< 0,< 0,< 0,< 0,< 0
Cn1cnc2c(F)c(Nc3ccc(Br)cc3Cl)c(C(=O)NOCCO)cc21 [Selumetinib],10.4,< 0,32.1,< 0,46.9,< 0,43.3,19.6
O=C1c2c(O)cc(O)cc2O[C@H](c2cc(O)c(O)c(O)c2)[C@H]1O [Dihydromyricetin],< 0,< 0,< 0,< 0,< 0,< 0,< 0,< 0
C#Cc1cccc(Nc2ncnc3cc(OC)c(OCCCCCCC(=O)NO)cc23)c1,8.61,11.5,12.4,< 0,26.1,21.7,3.86,30.6
Cc1ncc([N+](=O)[O-])n1CC(C)O (stereo not drawn) [Secnidazole],< 0,< 0,< 0,< 0,< 0,< 0,< 0,< 0
Oc1cc2c(cc1O)[C@@H]1c3ccc(O)c(O)c3OC[C@]1(O)C2 [Hematoxylin],< 0,< 0,< 0,< 0,< 0,< 0,< 0,< 0
CCCCN(CCCC)CC(O)c1cc(Cl)cc2c1-c1ccc(Cl)cc1/C2=C/c1ccc(Cl)cc1 (stereo not drawn) [Lumefantrine],< 0,< 0,< 0,< 0,< 0,6.47,< 0,< 0
O=C(NC1CCNCC1)c1n[nH]cc1NC(=O)c1c(Cl)cccc1Cl,56.3,56.1,86.1,56.6,88.6,94.2,77.5,78.6
Nc1cccc2c1C(=O)N(C1CCC(=O)NC1=O)C2=O (stereo not drawn) [Pomalidomide],< 0,12.9,< 0,< 0,< 0,< 0,< 0,< 0

SMILES,reduction in cell viability (M229P) [%],reduction in cell viability (M229R) [%],reduction in cell viability (M238P) [%],reduction in cell viability (M238R) [%],reduction in cell viability (M249P) [%],reduction in cell viability (M249R) [%],reduction in cell viability (UACC62P) [%],reduction in cell viability (UACC62R) [%]
C[C@@H](Oc1cc(-n2cnc3ccc(CN4CCN(C)CC4)cc32)sc1C(N)=O)c1ccccc1C(F)(F)F,6.43,5.34,45,44.1,< 0,5.89,21.9,80.6
CN1CCc2c(c3ccccc3n2Cc2ccc(C(=O)NO)cc2)C1 [Tubastatin A],< 0,< 0,< 0,< 0,< 0,< 0,< 0,< 0
CC(=O)N1CCN(c2ccc(OCc3nn(C)c(C)c3-c3cccc4c(CCCOc5cccc6ccccc56)c(C(=O)O)n(Cc5cccnc5)c34)cc2)CC1,< 0,< 0,< 0,< 0,< 0,< 0,< 0,< 0
COc1ccc(COc2cc3oc(=O)c4cc(C(C)O)ccc4c3cc2OC)cc1 (stereo not drawn),< 0,< 0,< 0,< 0,< 0,< 0,6.03,< 0
C[C@]12CC[C@@H]3c4ccc(O)cc4C[C@@H](CCCCCCCCC[S+]([O-])CCCC(F)(F)C(F)(F)F)[C@H]3[C@@H]1CC[C@@H]2O (stereo partly drawn) [Fulvestrant],< 0,< 0,< 0,< 0,< 0,8.45,15.1,< 0
O=NN(CCCl)C(=O)NC1CCCCC1 [Lomustine],< 0,< 0,< 0,< 0,< 0,< 0,< 0,< 0
CCC(CC)[C@H](NC(C)=O)[C@@H]1[C@H](O)[C@@H](C(=O)O)C[C@H]1NC(=N)N [Peramivir],< 0,< 0,< 0,< 0,< 0,< 0,< 0,< 0
C[C@]12C=CC(=O)N[C@@H]1CC[C@@H]1[C@@H]2CC[C@]2(C)[C@@H](C(=O)Nc3cc(C(F)(F)F)ccc3C(F)(F)F)CC[C@@H]12 [Dutasteride],< 0,< 0,< 0,< 0,< 0,< 0,,< 0
CCN(CC)CC#CCOC(=O)C(O)(c1ccccc1)C1CCCCC1 (stereo not drawn) [Oxybutynin chloride],< 0,< 0,< 0,< 0,< 0,< 0,< 0,< 0
COc1ccc2[nH]c([S@@+]([O-])Cc3ncc(C)c(OC)c3C)nc2c1 [Esomeprazole magnesium],< 0,< 0,< 0,< 0,< 0,< 0,< 0,3.04
O=c1ccn([C@@H]2O[C@H](CO)[C@@H](O)[C@H]2O)c(=O)[nH]1 [Uridine],< 0,< 0,< 0,< 0,< 0,< 0,< 0,< 0
CC(C)c1cnn2c(NCc3ccccc3)cc(NCCCCCCN)nc12,< 0,< 0,< 0,< 0,< 0,< 0,7.36,< 0
Cc1c(NC(=O)OC[C@@H]2COCCN2)cn2ncnc(Nc3ccc4c(cnn4Cc4cccc(F)c4)c3)c12,< 0,< 0,< 0,< 0,< 0,< 0,8.45,< 0
CCCc1cc(C(N)=S)ccn1 [Protionamide],< 0,< 0,< 0,< 0,< 0,< 0,< 0,< 0
CCCCN1CCC(CNC(=O)c2c3n(c4ccccc24)CCCO3)CC1 [Piboserod hydrochloride],< 0,< 0,< 0,< 0,< 0,< 0,< 0,< 0
C[C@@H](O)[C@@H]1NC(=O)[C@H](CCCCN)NC(=O)[C@@H](Cc2c[nH]c3ccccc23)NC(=O)[C@H](Cc2ccccc2)NC(=O)[C@@H](NC(=O)[C@H](N)Cc2ccccc2)CSSC[C@@H](C(=O)N[C@H](CO)[C@@H](C)O)NC1=O [Octreotide],< 0,< 0,< 0,< 0,< 0,< 0,< 0,< 0
CC1=C[C@@H]2[C@H]([C@@H](O)C[C@@]3(C)[C@H]2C[C@@H](C)[C@]3(O)C(=O)CO)[C@@]2(C)Cc3cnn(-c4ccccc4)c3C=C12 [Deacetyl cortivazol],< 0,< 0,< 0,< 0,< 0,< 0,17.9,< 0
Nc1nc(N)nc(-c2cc(Cl)ccc2Cl)n1 [Irsogladine maleate],< 0,< 0,< 0,< 0,< 0,< 0,0.1,< 0
Cc1cnc(NC(=O)Nc2cc(Br)c(C)cc2OC[C@@H]2CNCCO2)cn1 [Rabusertib],< 0,46.3,9.9,< 0,< 0,40,< 0,27
CC(C)NCC(O)c1ccc(O)c(O)c1 (stereo not drawn) [Isoproterenol],< 0,< 0,< 0,< 0,< 0,< 0,< 0,< 0
CCCC[C@@H](C=O)NC(=O)[C@H](CC(C)C)NC(=O)OCc1ccccc1 [Calpeptin],< 0,,< 0,< 0,< 0,< 0,,< 0
